# From the supplement of paper PMC8728848
# The other results are listed elsewhere or left out.
# B1: Erv46-EDTA (Saccharomyces cerevisiae), P39727 (protein)
# chain: MKFLVNVALVFMVVYISYIYAAAPEHHHHHHDYDIPTTENLYFQGAMDSVVTRPQLVVDRDRHAKLELNMDVTFPSMPCDLVNLDIMDDSGEMQLDILDAGFTMSRLNSEGRPVGDATELHVGGNGDGTAPVNNDPNYCGPCYGAKDQSQNENLAQEEKVCCQDCDAVRSAYLEAGWAFFDGKNIEQCEREGYVSKINEHLNEGCRIKGSAQINRIQGNLHFAPGKPYQNAYGHFHDTSLYDKTSNLNFNHIINHLSFGKPIQSHSKLLGNDKRHGGAVVATSPLDGRQVFPDRNTHFHQFSYFAKIVPTRYEYLDNVVIETAQFSATFHSRPLAGGRDKDHPNTLHVRGGIPGMFVFFEMSPLKVINKEQ
# How the values were obtained:
# Experiment in all cases: glycan array binding signal (z-score within array); higher = stronger binding
# Settings in all cases: glycan notation: IUPAC condensed, linker removed
# [1] = molecular target: Neu5Ac(a2-3)Gal(b1-4)GlcNAc(b1-3)[Neu5Ac(a2-3)Gal(b1-4)GlcNAc(b1-6)]GalNAc
# Procedure, shortened: (§1)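 The binding signal is a Z-score computed within each array and averaged over linkers. Arrays of the same protein sequence at different concentrations or buffers were also averaged together. Data originate from 3228 arrays in the Consortium for Functional Glycomics database, kept only where the protein sequence was available.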
# [2] = molecular target: Neu5Ac(a2-3)Gal(b1-4)GlcNAc(b1-6)GalNAc
# Procedure, shortened: as §1
# [3] = molecular target: Neu5Ac(a2-3)Gal(b1-4)GlcNAc(b1-6)[Gal(b1-3)]GalNAc
# Procedure, shortened: as §1
# [4] = molecular target: Neu5Ac(a2-3)Gal(b1-4)GlcNAc(b1-6)[Neu5Ac(a2-3)Gal(b1-3)]GalNAc
# Procedure, shortened: as §1
# [5] = molecular target: Neu5Ac(a2-3)Gal(b1-4)GlcNAc6S
# Procedure, shortened: as §1
# [6] = molecular target: Neu5Ac(a2-3)Gal(b1-4)[Fuc(a1-3)]GlcNAc
# Procedure, shortened: as §1
# [7] = molecular target: Neu5Ac(a2-3)Gal(b1-4)[Fuc(a1-3)]GlcNAc(b1-2)Man
# Procedure, shortened: as §1
# [8] = molecular target: Neu5Ac(a2-3)Gal(b1-4)[Fuc(a1-3)]GlcNAc(b1-3)Gal
# Procedure, shortened: as §1
# [9] = molecular target: Neu5Ac(a2-3)Gal(b1-4)[Fuc(a1-3)]GlcNAc(b1-3)Gal(b1-4)GlcNAc
# Procedure, shortened: as §1
# [10] = molecular target: Neu5Ac(a2-3)Gal(b1-4)[Fuc(a1-3)]GlcNAc(b1-3)Gal(b1-4)[Fuc(a1-3)]GlcNAc(b1-3)Gal(b1-4)[Fuc(a1-3)]GlcNAc
# Procedure, shortened: as §1
# [11] = molecular target: Neu5Ac(a2-3)Gal(b1-4)[Fuc(a1-3)]GlcNAc(b1-3)GalNAc
# Procedure, shortened: as §1
# [12] = molecular target: Neu5Ac(a2-3)Gal(b1-4)[Fuc(a1-3)]GlcNAc(b1-6)[Gal(b1-3)]GalNAc
# Procedure, shortened: as §1
# [13] = molecular target: Neu5Ac(a2-3)Gal(b1-4)[Fuc(a1-3)]GlcNAc(b1-6)[Neu5Ac(a2-3)Gal(b1-3)]GalNAc
# Procedure, shortened: as §1
# [14] = molecular target: Neu5Ac(a2-3)Gal(b1-4)[Fuc(a1-3)]GlcNAc6S
# Procedure, shortened: as §1
# [15] = molecular target: Neu5Ac(a2-3)Gal6S(b1-4)GlcNAc
# Procedure, shortened: as §1
# [16] = molecular target: Neu5Ac(a2-3)Gal6S(b1-4)[Fuc(a1-3)]GlcNAc
# Procedure, shortened: as §1
# Neu5Ac(a2-3)GalNAc = molecular target: Neu5Ac(a2-3)GalNAc
# Procedure, shortened: as §1
# [17] = molecular target: Neu5Ac(a2-3)GalNAc(b1-4)GlcNAc
# Procedure, shortened: as §1
# [18] = molecular target: Neu5Ac(a2-3)[GalNAc(b1-4)]Gal(b1-4)Glc
# Procedure, shortened: as §1
# [19] = molecular target: Neu5Ac(a2-3)[GalNAc(b1-4)]Gal(b1-4)GlcNAc
# Procedure, shortened: as §1
# [20] = molecular target: Neu5Ac(a2-3)[GalNAc(b1-4)]Gal(b1-4)GlcNAc(b1-3)GalNAc
# Procedure, shortened: as §1
# [21] = molecular target: Neu5Ac(a2-3)[Neu5Ac(a2-6)]GalNAc
# Procedure, shortened: as §1
# Neu5Ac(a2-6)Gal = molecular target: Neu5Ac(a2-6)Gal
# Procedure, shortened: as §1
# [22] = molecular target: Neu5Ac(a2-6)Gal(b1-3)GlcNAc(b1-3)[Gal(b1-4)GlcNAc(b1-6)]Gal(b1-4)Glc
# Procedure, shortened: as §1
# Neu5Ac(a2-6)Gal(b1-4)Glc = molecular target: Neu5Ac(a2-6)Gal(b1-4)Glc
# Procedure, shortened: as §1
# [23] = molecular target: Neu5Ac(a2-6)Gal(b1-4)GlcNAc
# Procedure, shortened: as §1
# [24] = molecular target: Neu5Ac(a2-6)Gal(b1-4)GlcNAc(b1-2)Man
# Procedure, shortened: as §1
# [25] = molecular target: Neu5Ac(a2-6)Gal(b1-4)GlcNAc(b1-2)Man(a1-3)Man(b1-4)GlcNAc(b1-4)GlcNAc
# Procedure, shortened: as §1
# [26] = molecular target: Neu5Ac(a2-6)Gal(b1-4)GlcNAc(b1-2)Man(a1-3)[Gal(b1-4)GlcNAc(b1-2)Man(a1-6)]Man(b1-4)GlcNAc(b1-4)GlcNAc
# Procedure, shortened: as §1
# [27] = molecular target: Neu5Ac(a2-6)Gal(b1-4)GlcNAc(b1-2)Man(a1-3)[GlcNAc(b1-2)Man(a1-6)]Man(b1-4)GlcNAc(b1-4)GlcNAc
# Procedure, shortened: as §1
# [28] = molecular target: Neu5Ac(a2-6)Gal(b1-4)GlcNAc(b1-2)Man(a1-3)[GlcNAc(b1-4)][Neu5Ac(a2-6)Gal(b1-4)GlcNAc(b1-2)Man(a1-6)]Man(b1-4)GlcNAc(b1-4)GlcNAc
# Procedure, shortened: as §1
# [29] = molecular target: Neu5Ac(a2-6)Gal(b1-4)GlcNAc(b1-2)Man(a1-3)[Man(a1-6)]Man(b1-4)GlcNAc(b1-4)GlcNAc
# Procedure, shortened: as §1
# [30] = molecular target: Neu5Ac(a2-6)Gal(b1-4)GlcNAc(b1-2)Man(a1-3)[Neu5Ac(a2-3)Gal(b1-4)GlcNAc(b1-2)Man(a1-6)]Man(b1-4)GlcNAc(b1-4)GlcNAc
# Procedure, shortened: as §1
# [31] = molecular target: Neu5Ac(a2-6)Gal(b1-4)GlcNAc(b1-2)Man(a1-3)[Neu5Ac(a2-6)Gal(b1-4)GlcNAc(b1-2)Man(a1-6)]Man(b1-4)GlcNAc(b1-4)GlcNAc
# Procedure, shortened: as §1
# [32] = molecular target: Neu5Ac(a2-6)Gal(b1-4)GlcNAc(b1-2)Man(a1-3)[Neu5Ac(a2-6)Gal(b1-4)GlcNAc(b1-2)Man(a1-6)]Man(b1-4)GlcNAc(b1-4)[Fuc(a1-6)]GlcNAc
# Procedure, shortened: as §1
# [33] = molecular target: Neu5Ac(a2-6)Gal(b1-4)GlcNAc(b1-2)Man(a1-6)Man(b1-4)GlcNAc(b1-4)GlcNAc
# Procedure, shortened: as §1
# [34] = molecular target: Neu5Ac(a2-6)Gal(b1-4)GlcNAc(b1-2)Man(a1-6)[Gal(b1-4)GlcNAc(b1-2)Man(a1-3)]Man(b1-4)GlcNAc(b1-4)GlcNAc
# Procedure, shortened: as §1
# [35] = molecular target: Neu5Ac(a2-6)Gal(b1-4)GlcNAc(b1-2)Man(a1-6)[GlcNAc(b1-2)Man(a1-3)]Man(b1-4)GlcNAc(b1-4)GlcNAc
# Procedure, shortened: as §1
# [36] = molecular target: Neu5Ac(a2-6)Gal(b1-4)GlcNAc(b1-2)Man(a1-6)[Man(a1-3)]Man(b1-4)GlcNAc(b1-4)GlcNAc
# Procedure, shortened: as §1
# [37] = molecular target: Neu5Ac(a2-6)Gal(b1-4)GlcNAc(b1-2)[Neu5Ac(a2-6)Gal(b1-4)GlcNAc(b1-4)]Man(a1-3)[GlcNAc(b1-4)][Neu5Ac(a2-6)Gal(b1-4)GlcNAc(b1-2)[Neu5Ac(a2-6)Gal(b1-4)GlcNAc(b1-6)]Man(a1-6)]Man(b1-4)GlcNAc(b1-4)GlcNAc
# Procedure, shortened: as §1
# [38] = molecular target: Neu5Ac(a2-6)Gal(b1-4)GlcNAc(b1-2)[Neu5Ac(a2-6)Gal(b1-4)GlcNAc(b1-4)]Man(a1-3)[GlcNAc(b1-4)][Neu5Ac(a2-6)Gal(b1-4)GlcNAc(b1-4)Man(a1-6)]Man(b1-4)GlcNAc(b1-4)GlcNAc
# Procedure, shortened: as §1
# [39] = molecular target: Neu5Ac(a2-6)Gal(b1-4)GlcNAc(b1-2)[Neu5Ac(a2-6)Gal(b1-4)GlcNAc(b1-6)]Man(a1-6)[Neu5Ac(a2-6)Gal(b1-4)GlcNAc(b1-2)Man(a1-3)][GlcNAc(b1-4)]Man(b1-4)GlcNAc(b1-4)GlcNAc
# Procedure, shortened: as §1
# [40] = molecular target: Neu5Ac(a2-6)Gal(b1-4)GlcNAc(b1-3)Gal(b1-3)GlcNAc
# Procedure, shortened: as §1
# [41] = molecular target: Neu5Ac(a2-6)Gal(b1-4)GlcNAc(b1-3)Gal(b1-4)GlcNAc
# Procedure, shortened: as §1
# [42] = molecular target: Neu5Ac(a2-6)Gal(b1-4)GlcNAc(b1-3)Gal(b1-4)GlcNAc(b1-2)Man(a1-3)[Neu5Ac(a2-6)Gal(b1-4)GlcNAc(b1-3)Gal(b1-4)GlcNAc(b1-2)Man(a1-6)]GalNAc
# Procedure, shortened: as §1
# [43] = molecular target: Neu5Ac(a2-6)Gal(b1-4)GlcNAc(b1-3)Gal(b1-4)GlcNAc(b1-3)Gal(b1-4)GlcNAc
# Procedure, shortened: as §1
binder,measurement,setting,value
B1,glycan array binding signal (z-score),[1],-1.01
same,glycan array binding signal (z-score),[2],-0.615
same,glycan array binding signal (z-score),[3],0.242
same,glycan array binding signal (z-score),[4],-0.252
same,glycan array binding signal (z-score),[5],-0.518
same,glycan array binding signal (z-score),[6],-0.259
same,glycan array binding signal (z-score),[7],-0.245
same,glycan array binding signal (z-score),[8],-0.531
same,glycan array binding signal (z-score),[9],0.298
same,glycan array binding signal (z-score),[10],-0.019
same,glycan array binding signal (z-score),[11],1.28
same,glycan array binding signal (z-score),[12],1.15
same,glycan array binding signal (z-score),[13],0.771
same,glycan array binding signal (z-score),[14],-0.585
same,glycan array binding signal (z-score),[15],-0.151
same,glycan array binding signal (z-score),[16],-0.046
same,glycan array binding signal (z-score),Neu5Ac(a2-3)GalNAc,-1.05
same,glycan array binding signal (z-score),[17],-0.028
same,glycan array binding signal (z-score),[18],-0.244
same,glycan array binding signal (z-score),[19],0.122
same,glycan array binding signal (z-score),[20],-0.691
same,glycan array binding signal (z-score),[21],-0.883
same,glycan array binding signal (z-score),Neu5Ac(a2-6)Gal,-0.121
same,glycan array binding signal (z-score),[22],-0.366
same,glycan array binding signal (z-score),Neu5Ac(a2-6)Gal(b1-4)Glc,-0.082
same,glycan array binding signal (z-score),[23],-0.528
same,glycan array binding signal (z-score),[24],-0.519
same,glycan array binding signal (z-score),[25],-0.652
same,glycan array binding signal (z-score),[26],-0.581
same,glycan array binding signal (z-score),[27],-0.441
same,glycan array binding signal (z-score),[28],-0.444
same,glycan array binding signal (z-score),[29],0.34
same,glycan array binding signal (z-score),[30],-0.318
same,glycan array binding signal (z-score),[31],-0.293
same,glycan array binding signal (z-score),[32],1.28
same,glycan array binding signal (z-score),[33],-0.429
same,glycan array binding signal (z-score),[34],-0.053
same,glycan array binding signal (z-score),[35],-0.805
same,glycan array binding signal (z-score),[36],-0.307
same,glycan array binding signal (z-score),[37],-0.269
same,glycan array binding signal (z-score),[38],-0.026
same,glycan array binding signal (z-score),[39],-0.824
same,glycan array binding signal (z-score),[40],-0.86
same,glycan array binding signal (z-score),[41],0.07
same,glycan array binding signal (z-score),[42],0.338
same,glycan array binding signal (z-score),[43],-0.315

# Taken from above (three entries):
binder,measurement,setting,value
B1,glycan array binding signal (z-score),[21],-0.883
same,glycan array binding signal (z-score),Neu5Ac(a2-6)Gal,-0.121
same,glycan array binding signal (z-score),[22],-0.366
